Results are given in words; binding and its absence hold for the method and conditions named. Binding seen in cells or lysates may run through a third protein. These calls come from enrichment with a bait or labelling near it, and not all partners need be listed. For part of these data: No binding means not detected with the bait. For part of these data: Sequences can lack the tags named with a protein.
Assays:
Assay in all cases: affinity purification with mass spectrometry; tandem affinity purification by the FLAG and His epitopes of ELF3-HFC from extracts of 10-day-old transgenic Arabidopsis seedlings (elf3-2 background), 12L:12D, harvested at ZT12; two replicates for each line
[1] = biological target: SvELF3-HFC (Setaria viridis ELF3a with C-terminal His6-3xFlag tag) (Setaria viridis)
[2] = biological target: T1, AtELF3-HFC (Arabidopsis EARLY FLOWERING 3 with C-terminal His6-3xFlag tag) (Arabidopsis thaliana) (UniProt O82804)
T1 sequence: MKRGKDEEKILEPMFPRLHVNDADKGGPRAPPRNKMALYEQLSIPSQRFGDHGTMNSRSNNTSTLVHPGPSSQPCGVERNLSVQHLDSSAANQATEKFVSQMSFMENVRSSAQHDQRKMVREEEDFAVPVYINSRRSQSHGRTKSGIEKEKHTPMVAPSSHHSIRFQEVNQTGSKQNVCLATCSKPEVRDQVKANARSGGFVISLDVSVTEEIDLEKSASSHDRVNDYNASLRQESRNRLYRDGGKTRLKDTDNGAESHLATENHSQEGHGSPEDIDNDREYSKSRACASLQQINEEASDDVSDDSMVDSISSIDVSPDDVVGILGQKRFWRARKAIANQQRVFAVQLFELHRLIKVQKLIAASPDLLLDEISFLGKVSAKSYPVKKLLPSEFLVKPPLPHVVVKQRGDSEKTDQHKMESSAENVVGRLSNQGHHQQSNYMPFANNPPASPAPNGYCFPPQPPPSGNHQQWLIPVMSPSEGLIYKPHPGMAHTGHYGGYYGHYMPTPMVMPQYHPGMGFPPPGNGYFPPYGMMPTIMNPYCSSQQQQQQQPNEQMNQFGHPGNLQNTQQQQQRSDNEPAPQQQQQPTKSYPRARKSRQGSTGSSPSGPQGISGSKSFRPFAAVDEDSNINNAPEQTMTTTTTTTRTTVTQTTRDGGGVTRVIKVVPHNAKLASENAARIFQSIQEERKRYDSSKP

[3] = biological target: BdELF3-HFC (Brachypodium distachyon ELF3 with C-terminal His6-3xFlag tag) (Brachypodium distachyon)

Binder | binding [1] | binding [2] | binding [3]
SPA1-RELATED 4 (protein, UniProt Q94BM7 1-794) MKGSSESSSRGLNNTSGVSEFCTDGSKSLSHIDYVRSLLGSHKEANLGGLDDDSIVRALECEDVSLRQWLDNPDRSVDAFECFHVFRQIVEIVNAAHSQGIVVHNVRPSCFVMSSFNNVSFIESASCSDSGSDEDATTKSREIGSSRQEEILSERRSKQQEEVKKQPFPMKQILAMEMSWYTSHEEDNGSLCNCASDIYRLGVLLFELFCPVSSREEKSRTMSSLRHRVLPPQILLNWPKEASFCLWLLHPEPSCRPSMSELLQSEFINEPRENLEEREAAMELRDRIEEQELLLEFLFLIQQRKQEAADKLQDTISLLSSDIDQVVKRQLVLQQKGRDVRSFLASRKRIRQGAETTAAEEENDDNSIDEESKLDDTLESTLLESSRLMRNLKKLESVYFATRYRQIKAATAAEKPLARYYSALSCNGRSSEKSSMSQPSKDPINDSRQGGWIDPFLEGLCKYLSFSKLRVKADLKQGDLLNSSNLVCAIGFDRDGEFFATAGVNKKIKIFECESIIKDGRDIHYPVVELASRSKLSGICWNSYIKSQVASSNFEGVVQVWDVARNQLVTEMKEHEKRVWSIDYSSADPTLLASGSDDGSVKLWSINQGVSIGTIKTKANICCVQFPSETGRSLAFGSADHKVYYYDLRNPKLPLCTMIGHHKTVSYVRFVDSSTLVSSSTDNTLKLWDLSMSISGINETPLHSFMGHTNVKNFVGLSVSDGYIATGSETNEVFVYHKAFPMPVLSYKFKTIDPVSELEVDDASQFISSVCWRGQSSTLVAANSTGNIKILEMV | no binding | binds | no binding
phyD (protein, UniProt P42497 1-1164) MVSGGGSKTSGGEAASSGHRRSRHTSAAEQAQSSANKALRSQNQQPQNHGGGTESTNKAIQQYTVDARLHAVFEQSGESGKSFDYSQSLKTAPYDSSVPEQQITAYLSRIQRGGYTQPFGCLIAVEESTFTIIGYSENAREMLGLMSQSVPSIEDKSEVLTIGTDLRSLFKSSSYLLLERAFVAREITLLNPIWIHSNNTGKPFYAILHRVDVGILIDLEPARTEDPALSIAGAVQSQKLAVRAISHLQSLPSGDIKLLCDTVVESVRDLTGYDRVMVYKFHEDEHGEVVAESKRNDLEPYIGLHYPATDIPQASRFLFKQNRVRMIVDCYASPVRVVQDDRLTQFICLVGSTLRAPHGCHAQYMTNMGSIASLAMAVIINGNEEDGNGVNTGGRNSMRLWGLVVCHHTSARCIPFPLRYACEFLMQAFGLQLNMELQLALQVSEKRVLRMQTLLCDMLLRDSPAGIVTQRPSIMDLVKCNGAAFLYQGKYYPLGVTPTDSQINDIVEWLVANHSDSTGLSTDSLGDAGYPRAAALGDAVCGMAVACITKRDFLFWFRSHTEKEIKWGGAKHHPEDKDDGQRMNPRSSFQTFLEVVKSRCQPWETAEMDAIHSLQLILRDSFKESEAMDSKAAAAGAVQPHGDDMVQQGMQEIGAVAREMVRLIETATVPIFAVDIDGCINGWNAKIAELTGLSVEDAMGKSLVRELIYKEYKETVDRLLSCALKGDEGKNVEVKLKTFGSELQGKAMFVVVNACSSKDYLNNIVGVCFVGQDVTGHKIVMDKFINIQGDYKAIIHSPNPLIPPIFAADENTCCLEWNTAMEKLTGWPRSEVIGKLLVREVFGSYCRLKGPDALTKFMIVLHNAIGGQDTDKFPFPFFDRKGEFIQALLTLNKRVSIDGKIIGAFCFLQIPSPELQQALEVQRRQESEYFSRRKELAYIFQVIKNPLSGLRFTNSLLEDMDLNEDQKQLLETSVSCEKQISKIVGDMDVKSIDDGSFLLERTEFFIGNVTNAVVSQVMLVVRERNLQLIRNIPTEVKSMAVYGDQIRLQQVLAEFLLSIVRYAPMEGSVELHLCPTLNQMADGFSAVRLEFRMACAGEGVPPEKVQDMFHSSRWTSPEGLGLSVCRKILKLMNGGVQYIREFERSYFLIVIELPVPLMMMMPSS | binds | binds | binds
phyA (protein, UniProt P14712 1-1122) MSGSRPTQSSEGSRRSRHSARIIAQTTVDAKLHADFEESGSSFDYSTSVRVTGPVVENQPPRSDKVTTTYLHHIQKGKLIQPFGCLLALDEKTFKVIAYSENASELLTMASHAVPSVGEHPVLGIGTDIRSLFTAPSASALQKALGFGDVSLLNPILVHCRTSAKPFYAIIHRVTGSIIIDFEPVKPYEVPMTAAGALQSYKLAAKAITRLQSLPSGSMERLCDTMVQEVFELTGYDRVMAYKFHEDDHGEVVSEVTKPGLEPYLGLHYPATDIPQAARFLFMKNKVRMIVDCNAKHARVLQDEKLSFDLTLCGSTLRAPHSCHLQYMANMDSIASLVMAVVVNEEDGEGDAPDATTQPQKRKRLWGLVVCHNTTPRFVPFPLRYACEFLAQVFAIHVNKEVELDNQMVEKNILRTQTLLCDMLMRDAPLGIVSQSPNIMDLVKCDGAALLYKDKIWKLGTTPSEFHLQEIASWLCEYHMDSTGLSTDSLHDAGFPRALSLGDSVCGMAAVRISSKDMIFWFRSHTAGEVRWGGAKHDPDDRDDARRMHPRSSFKAFLEVVKTRSLPWKDYEMDAIHSLQLILRNAFKDSETTDVNTKVIYSKLNDLKIDGIQELEAVTSEMVRLIETATVPILAVDSDGLVNGWNTKIAELTGLSVDEAIGKHFLTLVEDSSVEIVKRMLENALEGTEEQNVQFEIKTHLSRADAGPISLVVNACASRDLHENVVGVCFVAHDLTGQKTVMDKFTRIEGDYKAIIQNPNPLIPPIFGTDEFGWCTEWNPAMSKLTGLKREEVIDKMLLGEVFGTQKSCCRLKNQEAFVNLGIVLNNAVTSQDPEKVSFAFFTRGGKYVECLLCVSKKLDREGVVTGVFCFLQLASHELQQALHVQRLAERTAVKRLKALAYIKRQIRNPLSGIMFTRKMIEGTELGPEQRRILQTSALCQKQLSKILDDSDLESIIEGCLDLEMKEFTLNEVLTASTSQVMMKSNGKSVRITNETGEEVMSDTLYGDSIRLQQVLADFMLMAVNFTPSGGQLTVSASLRKDQLGRSVHLANLEIRLTHTGAGIPEFLLNQMFGTEEDVSEEGLSLMVSRKLVKLMNGDVQYLRQAGKSSFIITAELAAANK | binds | binds | binds
ELF4-L2 (protein, UniProt Q94BS8 1-119) MESRMEGDVYSGFGERYQMDGKLLQNFQKSFVQVQDILDQNRLLINEINQNHESKQADHLGRNVGLIRELNNNIRTVASLYGDLSHSFARSVDASSEGESTGTLKSDGKANNQKRFRSG | binds | binds | binds

The remaining lines, values ahead:

binding [1] | binding [2] | binding [3] | Binder
binds | binds | binds | LIGHT-REGULATED WD 2 (protein, UniProt Q38960 1-346) MVTSSDQIQNGSEEQSKRSEIYTYEAPWQIYAMNWSIRRDKKYRLAITSLIEQYPNRVEIVQLDESNGEIRSDPNLCFEHPYPPTKTSFIPDKECQRPDLLATSSDFLRLWRISDDESRVELKSCLSSDKNSEFSGPITSFDWNEAEPRRIGTSSIDTTCTIWDIEREVVDTQLIAHDKEVYDIAWGGVGVFASVSEDGSVRVFDLRDKEHSTIIYESGEPSTPLVRLSWNKQDPRYMATVIMGSAKIVVLDIRFPALPVVELQRHQASVNAIAWAPHSSSHICSAGDDSQALIWDISSMGQHVEGGLDPILAYTAGAEVEQLQWSSSQPDWVAIAFSNKLQILRV
binds | binds | binds | LWD1 (protein, UniProt Q9LPV9 1-346) MGTSSDPIQDGSDEQQKRSEIYTYEAPWHIYAMNWSVRRDKKYRLAITSLLEQYPNRVEIVQLDESNGEIRSDPNLSFEHPYPPTKTIFIPDKECQRPDLLATSSDFLRLWRIADDHSRVELKSCLNSNKNSEFCGPLTSFDWNEAEPRRIGTSSTDTTCTIWDIEREAVDTQLIAHDKEVFDIAWGGVGVFASVSADGSVRVFDLRDKEHSTIIYESSEPDTPLVRLGWNKQDPRYMATIIMDSAKVVVLDIRFPALPVVELQRHQASVNAIAWAPHSSCHICTAGDDSQALIWDISSMGQHVEGGLDPILAYTAGAEIEQLQWSSSQPDWVAIAFSTKLQILRV
binds | binds | binds | LUX ARRHYTHMO, endogenous (protein, UniProt Q9SNB4 1-323) MGEEVQMSDYDVSGDGDRVSEWEMGLPSDEDLASLSYSLIPPNLAMAFSITPERSRTIQDVNRASETTLSSLRGGSSGPNTSSSNNNVEEEDRVGSSSPGSDSKKQKTSNGDGDDGGGVDPDSAMAAEEGDSGTEDLSGKTLKRPRLVWTPQLHKRFVDVVAHLGIKNAVPKTIMQLMNVEGLTRENVASHLQKYRLYLKRMQGLTNEGPSASDKLFSSTPVPPQSFQDIGGGGGSSGNVGVPIPGAYGTQQMMQMPVYAHHMGMQGYHHQNHNHDPYHQNHRHHHGAGGNGAFESNPYMMQQNKFGSMASYPSVGGGSANEN

Source: publication PMC6508535
